Values of other authors in US20210361598A1, “COMPOUNDS FOR PREVENTION AND TREATMENT OF POST-INTENSIVE CARE COGNITIVE DYSFUNCTION AND COGNITIVE DYSFUNCTION RESULTING FROM RESPIRATORY DISTRESS” (Abrexa Pharmaceuticals, Inc., priority 2020, published 2021).
For at least one compound, name, drawing or mass did not settle the structure.

Test system: post-surgical cognitive dysfunction
Conditions: literature reports, after surgery; cited from earlier work

CN(C)c1ccc(O)c2c1C[C@H]1C[C@H]3[C@H](N(C)C)C(O)=C(C(N)=O)C(=O)[C@@]3(O)C(O)=C1C2=O [Minocycline]
Effect on post-surgical cognitive dysfunction: exacerbated post-surgical cognitive dysfunction
